Experimental data as given in patent US7541467B2, “Fluorescent zinc ion sensor” (Sekisui Medical Co., Ltd., priority 2004, dated 2009).

Experiment: Titration with zinc ions monitored by ultraviolet and visible absorption spectra
Format: binding
Protocol: TQEN was titrated with zinc ions, and changes of ultraviolet and visible absorption spectra were monitored.
In the same manner as in Test Example 3, solution of 6OMeTQEN (concentration of 6OMeTQEN: 34 μM) in water-containing DMF (DMF:water=1:1) was titrated with zinc ions (0 to 68 μM), and changes in absorption were monitored by measuring ultraviolet and visible absorption spectra (FIG. 8).

c1ccc2nc(CN(CCN(Cc3ccc4ccccc4n3)Cc3ccc4ccccc4n3)Cc3ccc4ccccc4n3)ccc2c1 [TQEN, N,N,N′,N′-tetrakis(2-quinolylmethyl)ethylenediamine]
equivalents of zinc ions at which changes of absorption stopped (UV-visible absorption, isosbestic point): 1 equivalent
change of absorption spectra by former class of ions (sodium, potassium and the like) (competition experiment): no change
change of absorption spectra by latter class of ions (copper, cobalt and the like) (competition experiment): same spectral changes as those induced by zinc
